Reference: patent publication US20190119385A1
Results are given in words; binding and its absence hold for the method and conditions named. Some entries that bind do so weakly or less than the wild type. Values belong to the binder of their own block, whether it stands above or below them.

Legend:
[1] = target: HLA Class I Histocompatibility Antigen, alpha chain G antigen, recombinant, HIS Tag (MybioSource MBS717410) (human) (UniProt P17693); assay: ELISA, hybridoma supernatant on antigen coated plates
[2] = target: human HLA-G expressed on cells (JEG-3 trophoblastic carcinoma, SKOV3, papillary thyroid carcinoma tissue) (human) (UniProt P17693); assay: immunohistochemistry, papillary thyroid carcinoma section (FIG. 2A)
[3] = target: human HLA-G expressed on cells (JEG-3 trophoblastic carcinoma, SKOV3, papillary thyroid carcinoma tissue) (human) (UniProt P17693); assay: flow cytometry screening of monoclonal antibodies to human HLA-G (FIG. 1)
[4] = target: human HLA-G expressed on cells (JEG-3 trophoblastic carcinoma, SKOV3, papillary thyroid carcinoma tissue) (human) (UniProt P17693); assay: immunohistochemistry with antigen retrieval, papillary thyroid carcinoma tissue
[5] = target: human HLA-G expressed on cells (JEG-3 trophoblastic carcinoma, SKOV3, papillary thyroid carcinoma tissue) (human) (UniProt P17693); assay: flow cytometry, hybridoma supernatant on JEG-3 cells

binding [1]: binds
binding [2]: binds
binding [3]: binds
binding [4]: binds
binding [5]: binds
B1: HLA-G 4E3 (antibody, V domains shown)
VH: EVQLQESGGGLVQPKGSLKLSCAAFGFTFNTYAMHWVRQAPGKGLEWVARIRSKSNNYATYYADSVKDRFTISRDDSQSMLSLQMNNLKTEDTAIYYCVRGGYWSFDVWGAGTTVTVSS
VL: DIVITQTTPSVPVTPGESVSISCRSSKSLLHSNGNTYLYWFLQRPGQSPQLLISRMSSLASGVPDRFSGSGSGTAFTLRISRVEAEDVGVYYCMQHLEYPYTFGGGTKLEIK

binding [1]: binds
binding [3]: binds
binding [5]: binds
B2: 3H11 (antibody, V domains shown)
VH: QVQLQESGAELVKPGASVKLSCTASGFNIKDTYMHWVKQRPEQGLEWIGRIDPANGNTKYDPKFQGKATITADTSSNTAYLQLSSLTSEDTAVYYCARSYYGGFAYWGQGTLVTVSA
VL: DIVLTQSPASLAVSLGQRATISCRASKSVSTSGYSYMHWYQQKPGQPPKLLIYLVSNLESGVPARFSGSGSGTDFTLNIHPVEEEDAATYYCQHSRELPRTFGGGTKLEIK
